Experimental data as given in publication PMC4732303.
No constants are given. Whether binding was seen depends on the method and setting. In cells and extracts the contact can be indirect. Some binding calls cover weakened binding; strength is not graded here. For some assays here: Sequences can lack the tags named with a protein.

B1: C-terminally HA-tagged human ALK2 (ALK2-HA), Q04771 21-509 (receptor)
chain: MEDEKPKVNPKLYMCVCEGLSCGNEDHCEGQQCFSSLSINDGFHVYQKGCFQVYEQGKMTCKTPPSPGQAVECCQGDWCNRNITAQLPTKGKSFPGTQNFHLEVGLIILSVVFAVCLLACLLGVALRKFKRRNQERLNPRDVEYGTIEGLITTNVGDSTLADLLDHSCTSGSGSGLPFLVQRTVARQITLLECVGKGRYGEVWRGSWQGENVAVKIFSSRDEKSWFRETELYNTVMLRHENILGFIASDMTSRHSSTQLWLITHYHEMGSLYDYLQLTTLDTVSCLRIVLSIASGLAHLHIEIFGTQGKPAIAHRDLKSKNILVKKNGQCCIADLGLAVMHSQSTNQLDVGNNPRVGTKRYMAPEVLDETIQVDCFDSYKRVDIWAFGLVLWEVARRMVSNGIVEDYKPPFYDVVPNDPSFEDMRKVVCVDQQRPNIPNRWFSDPTLTSLAKLMKECWYQNPSARLTALRIKKTLTKIDNSLDKLKTDC
B2: human VE-cadherin, full-length coding sequence in pcDNA3.1, overexpressed (protein, UniProt P33151 48-784)
chain: DWIWNQMHIDEEKNTSLPHHVGKIKSSVSRKNAKYLLKGEYVGKVFRVDAETGDVFAIERLDRENISEYHLTAVIVDKDTGENLETPSSFTIKVHDVNDNWPVFTHRLFNASVPESSAVGTSVISVTAVDADDPTVGDHASVMYQILKGKEYFAIDNSGRIITITKSLDREKQARYEIVVEARDAQGLRGDSGTATVLVTLQDINDNFPFFTQTKYTFVVPEDTRVGTSVGSLFVEDPDEPQNRMTKYSILRGDYQDAFTIETNPAHNEGIIKPMKPLDYEYIQQYSFIVEATDPTIDLRYMSPPAGNRAQVIINITDVDEPPIFQQPFYHFQLKENQKKPLIGTVLAMDPDAARHSIGYSIRRTSDKGQFFRVTKKGDIYNEKELDREVYPWYNLTVEAKELDSTGTPTGKESIVQVHIEVLDENDNAPEFAKPYQPKVCENAVHGQLVLQISAIDKDITPRNVKFKFILNTENNFTLTDNHDNTANITVKYGQFDREHTKVHFLPVVISDNGMPSRTGTSTLTVAVCKCNEQGEFTFCEDMAAQVGVSIQAVVAILLCILTITVITLLIFLRRRLRKQARAHGKSVPEIHEQLVTYDEEGGGEMDTTSYDVSVLNSVRRGGAKPPRPALDARPSLYAQVQKPPRHAPGAHGGPGEMAAMIEVKKDEADHDGDGPPYDTLHIYGYEGSESIAESLSSLGTDSSDSDVDYDFLNDWGPRFKMLAELYGSDPREELLY
B3: activin receptor-like kinase 2 (ALK2), endogenous in HUVECs (receptor, UniProt Q04771 21-509)
chain: B1 chain
B4: C-terminally HA-tagged human ALK2 (ALK2-HA) (receptor, UniProt Q04771 21-509)
chain: B1 chain

Experiments:
[1] = molecular target: T1, VE-cadherin (vascular endothelial cadherin), endogenous in HUVECs (human (endogenous in HUVEC)) (UniProt P33151); assay: co-IP; endogenous proteins from confluent HUVECs, untreated or stimulated with 10 nM BMP6 (30 or 60 min); TNE lysis buffer with 0.5% Triton X-100; bait precipitated with a specific antibody and protein A-Sepharose, western blot
T1 sequence: B2 chain

[2] = molecular target: T1, VE-cadherin (vascular endothelial cadherin), endogenous in HUVECs (human (endogenous in HUVEC)); assay: proximity ligation; in situ PLA (Duolink) in fixed HUVECs, untreated or BMP6 for 60 min; antibodies to intracellular epitopes of ALK2 or BMPRII combined with one to VE-cadherin; heteromers counted and normalized to untreated cells
[3] = molecular target: T2, human VE-cadherin, full-length coding sequence in pcDNA3.1, overexpressed (human) (UniProt P33151); assay: co-IP; overexpressed proteins from transfected HEK293T cells; modified RIPA buffer (50 mM Tris-HCl pH 7.4, 150 mM NaCl, 0.5% NP-40, 0.1% SDS); bait precipitated with a specific or anti-HA antibody, normal IgG as control, western blot
T2 sequence: B2 chain

BMPRII-Myc, Q13873 = molecular target: T3, BMPRII-Myc, Q13873; assay: co-IP; HEK293T cells transfected with BMPRII-Myc and ALK2-HA with co-expressed VE-cadherin, with or without BMP6 for 45 min; BMPRII-Myc precipitated with a Myc-specific antibody; modified RIPA buffer; conditions: remark: other sources report otherwise
T3 chain: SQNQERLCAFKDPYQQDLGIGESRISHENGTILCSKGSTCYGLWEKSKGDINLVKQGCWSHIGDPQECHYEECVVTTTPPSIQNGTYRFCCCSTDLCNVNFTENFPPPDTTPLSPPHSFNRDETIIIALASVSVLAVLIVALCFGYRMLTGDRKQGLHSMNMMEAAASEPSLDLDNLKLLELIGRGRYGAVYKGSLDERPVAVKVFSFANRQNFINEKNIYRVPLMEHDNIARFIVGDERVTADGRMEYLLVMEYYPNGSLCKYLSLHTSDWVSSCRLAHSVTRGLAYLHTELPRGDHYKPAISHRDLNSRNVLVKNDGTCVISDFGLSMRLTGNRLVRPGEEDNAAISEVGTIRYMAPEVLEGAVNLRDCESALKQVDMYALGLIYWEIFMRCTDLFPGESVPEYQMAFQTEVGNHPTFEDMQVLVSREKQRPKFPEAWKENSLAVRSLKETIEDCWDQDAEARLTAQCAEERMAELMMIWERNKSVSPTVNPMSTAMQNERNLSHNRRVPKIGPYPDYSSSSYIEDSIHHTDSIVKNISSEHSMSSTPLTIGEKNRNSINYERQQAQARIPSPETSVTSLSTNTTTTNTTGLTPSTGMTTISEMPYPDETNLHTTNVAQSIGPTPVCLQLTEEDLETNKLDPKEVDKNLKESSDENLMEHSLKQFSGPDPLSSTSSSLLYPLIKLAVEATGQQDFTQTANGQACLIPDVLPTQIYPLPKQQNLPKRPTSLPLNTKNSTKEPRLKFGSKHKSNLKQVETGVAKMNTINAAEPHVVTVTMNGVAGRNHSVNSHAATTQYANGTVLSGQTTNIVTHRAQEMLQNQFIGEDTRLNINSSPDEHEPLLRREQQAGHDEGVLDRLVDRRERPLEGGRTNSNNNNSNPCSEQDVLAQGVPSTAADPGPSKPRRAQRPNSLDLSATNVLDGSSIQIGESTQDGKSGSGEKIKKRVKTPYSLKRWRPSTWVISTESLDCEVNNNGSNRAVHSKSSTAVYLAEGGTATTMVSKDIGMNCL

BMPRII-Myc [4] = molecular target: BMPRII-Myc (UniProt Q13873); assay: as above
BMPRII-Myc [5] = molecular target: BMPRII-Myc (UniProt Q13873); assay: co-IP; HEK293T cells transfected with BMPRII-Myc and ALK2-HA without VE-cadherin, with or without BMP6 for 45 min; BMPRII-Myc precipitated with a Myc-specific antibody; modified RIPA buffer

Molecule | binding [2] | binding [3] | further results
BMP type II receptor (BMPRII), endogenous in HUVECs (from UniProt Q13873 27-1038) | binds |  | binding [1]: binds
BMPRII-HA (from UniProt Q13873 27-1038) (receptor) |  | binds | 
B1 |  |  | binding (BMPRII-Myc, Q13873): binds
B2 |  |  | binding (BMPRII-Myc [4]): binds
B3 | binds |  | 
B4 |  | binds | binding (BMPRII-Myc [5]): binds weakly
